PubChem BioAssay AID652243, Drosophila RNAi Screening Center – 2013

Assay: 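Fly genes required for human androgen receptor driven transcription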 (primary screen)
System: Drosophila S2R+ cells
Reagent: long dsRNA against Drosophila genes
Duration: 72 h (48 h, then 24 h hormone)
Treatment: synthetic androgen R1881 at 10 nM for 24 h
Detection: 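Firefly light from an androgen-responsive reporter and Renilla control light per well, raw and unnormalised, for each of two replicates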
Scale: firefly reporter light: higher = more light from androgen-responsive reporter; Renilla control light: higher = more constitutive control signal (cell number, transfection)
Call rule: 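Hit when the log firefly-to-Renilla ratio dropped or increased by a fixed fold versus the mean of GFP or LacZ controls across duplicate plates; lowering cut given as 1.5 and as 3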
Calls: active = hit: reporter lowered or raised; inactive = no hit
The deposit covers about 24,000 reagents; this is an unselected part of those with a known target gene and a result. Of all reagents, 246 (1%) got an active call. 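Plates not normalised; calls are printed but the firefly/Renilla ratio behind them is not deposited; fold cut for lowering reported inconsistently.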 Raw values vary from plate to plate and are shown uncorrected. Names joined by + are all predicted targets of the reagent. No sequences are given here. Not stated in the record: the amount of reagent.

| target gene | amplicon | firefly reporter light, replicate 1 | firefly reporter light, replicate 2 | Renilla control light, replicate 1 | Renilla control light, replicate 2 | call |
| --- | --- | --- | --- | --- | --- | --- |
| ImpL1 | DRSC11197 | 7.28e5 | 7.42e5 | 2.03e6 | 2.58e6 | inactive |
| ImpL1 | DRSC28367 | 7.16e5 | 1.06e6 | 9.07e5 | 1.34e6 | inactive |
| CG34195 | DRSC06909 | 70670 | 63596 | 9.68e5 | 9.68e5 | inactive |
| gammaSnap1 | DRSC04686 | 1.12e6 | 8.28e5 | 8.04e5 | 8.56e5 | active |
| gammaSnap1 | DRSC28381 | 3.92e5 | 5.46e5 | 1.54e6 | 2.02e6 | active |
| gammaSnap1 | DRSC38987 | 8.20e5 | 8.13e5 | 1.71e6 | 1.71e6 | inactive |
| CG33017 | DRSC06573 | 41705 | 58326 | 8.23e5 | 8.23e5 | inactive |
| CG33017 | DRSC06574 | 36583 | 94444 | 1.05e6 | 1.05e6 | inactive |
| CG15097 | DRSC06526 | 1.20e6 | 1.05e6 | 1.73e6 | 1.21e6 | inactive |
| CG15097 | DRSC27170 | 3.08e5 | 2.37e5 | 5.69e5 | 5.94e5 | inactive |
| Pgant2 | DRSC00587 | 2.20e5 | 1.31e5 | 1.32e6 | 8.99e5 | inactive |
| CG13601 | DRSC14604 | 92202 | 97241 | 6.69e5 | 8.43e5 | inactive |
| CG43322 | DRSC02280 | 80454 | 1.35e5 | 8.70e5 | 1.10e6 | inactive |
| CG43322 | DRSC27089 | 3.08e5 | 2.28e5 | 7.41e5 | 3.55e5 | inactive |
| CG34310 | DRSC38924 | 9.05e5 | 1.04e6 | 2.02e6 | 2.07e6 | inactive |
| CG34040 | DRSC38894 | 8.70e5 | 7.47e5 | 1.86e6 | 2.08e6 | inactive |
| Hph | DRSC12164 | 50341 | 46176 | 3.55e5 | 4.58e5 | inactive |
| Hph | DRSC12251 | 97815 | 1.27e5 | 2.08e6 | 2.32e6 | inactive |
| Hph | DRSC21876 | 7.49e5 | 5.50e5 | 2.25e6 | 1.44e6 | inactive |
| Hph | DRSC24780 | 5.58e5 | 3.22e5 | 3.41e5 | 4.74e5 | inactive |
| Hph | DRSC25979 | 4.31e5 | 4.84e5 | 1.12e6 | 8.85e5 | inactive |
| CG33928 | DRSC37816 | 5.15e5 | 4.31e5 | 1.27e6 | 1.21e6 | inactive |
| Pdk | DRSC07504 | 1.55e6 | 3.98e5 | 2.06e6 | 6.09e5 | inactive |
| Pdk | DRSC36720 | – | – | – | – | inactive |
| Pdk | DRSC36721 | – | – | – | – | inactive |
| Polr2K | DRSC38870 | 9.56e5 | 1.13e6 | 1.46e6 | 1.52e6 | inactive |
| mol | DRSC01431 | 1.43e5 | 2.01e5 | 5.02e5 | 4.03e5 | inactive |
| mol | DRSC01912 | 3.52e5 | 1.81e5 | 1.05e6 | 9.02e5 | inactive |
| mol | DRSC02479 | 1.76e5 | 1.57e5 | 2.34e6 | 2.52e6 | inactive |
| mol | DRSC23967 | 5.88e5 | 3.85e5 | 3.90e5 | 2.71e5 | inactive |
| CG16798 | DRSC02517 | 1.21e5 | 89684 | 1.04e6 | 7.79e5 | inactive |
| CR15821 | DRSC08481 | 65750 | 1.20e5 | 9.09e5 | 9.48e5 | inactive |
| CR15821 | DRSC24584 | 7.54e5 | 4.13e5 | 4.50e5 | 4.61e5 | inactive |
| Tmtc1 | DRSC00151 | 2.63e5 | 1.44e5 | 6.16e5 | 3.24e5 | inactive |
| Ptp52F | DRSC06717 | 73491 | 77521 | 1.37e6 | 1.37e6 | inactive |
| Ptp52F | DRSC36866 | – | – | – | – | inactive |
| Ptp52F | DRSC36867 | – | – | – | – | inactive |
| CG12699 | DRSC06162 | 8.16e5 | 8.03e5 | 1.89e6 | 1.51e6 | inactive |
| CG12699 | DRSC25679 | 1.44e6 | 1.08e6 | 1.31e6 | 9.22e5 | inactive |
| CG15831 (retired record) | DRSC38783 | 7.64e5 | 7.69e5 | 1.41e6 | 1.80e6 | inactive |
| CG31058 (retired record) | DRSC22987 | 8.21e5 | 7.98e5 | 1.58e6 | 1.87e6 | inactive |
| CG31058 (retired record) | DRSC25786 | 5.88e5 | 4.24e5 | 1.96e6 | 1.13e6 | inactive |
| CG31058 (retired record) | DRSC39085 | 4.47e5 | 3.59e5 | 1.28e6 | 1.32e6 | inactive |
| CG15912 | DRSC18105 | 2.35e5 | 5.07e5 | 4.26e6 | 3.47e6 | inactive |
| CG15912 | DRSC28275 | 2.85e5 | 5.46e5 | 9.44e5 | 1.34e6 | inactive |
| Invadolysin | DRSC15527 | 1.96e5 | 2.03e5 | 1.70e6 | 1.63e6 | inactive |
| Drat | DRSC06600 | 6.49e5 | 1.24e6 | 8.49e5 | 1.97e6 | inactive |
| CG30109 + CG30108 | DRSC05674 | 2.59e5 | 2.48e5 | 2.99e5 | 2.78e5 | inactive |
| Amun | DRSC19847 | 4.86e5 | 4.72e5 | 3.15e6 | 2.95e6 | inactive |
| Amun | DRSC28058 | 5.88e5 | 7.70e5 | 7.16e5 | 6.80e5 | inactive |
| RnpS1 | DRSC15154 | 28104 | 16610 | 3.25e5 | 3.56e5 | inactive |
| CG15657 | DRSC04248 | 2.87e5 | 3.04e5 | 1.74e6 | 1.64e6 | inactive |
| PyK | DRSC16806 | 2.42e5 | 2.13e5 | 3.49e6 | 3.35e6 | inactive |
| PyK | DRSC27033 | 4.65e5 | 2.74e5 | 6.10e5 | 2.85e5 | inactive |
| glob1 | DRSC16959 | 1.33e5 | 1.72e5 | 8.16e5 | 1.03e6 | inactive |
| Droj2 | DRSC16450 | 80211 | 46731 | 6.70e5 | 3.90e5 | inactive |
| Droj2 | DRSC28863 | 3.37e5 | 3.64e5 | 9.01e5 | 9.32e5 | inactive |
| CG4962 | DRSC10464 | 1.68e5 | 2.01e5 | 1.74e6 | 1.45e6 | inactive |
